Laboratory results reported in the supplement of paper PMC10849652.
The list shows a part of the results.

By UniProt entry, the sequences of proteins in these tests, tags left out. Where a name states a change or a piece, a line headed by the entry shows the natural chain unless it says otherwise.
UniProt Q96RS0: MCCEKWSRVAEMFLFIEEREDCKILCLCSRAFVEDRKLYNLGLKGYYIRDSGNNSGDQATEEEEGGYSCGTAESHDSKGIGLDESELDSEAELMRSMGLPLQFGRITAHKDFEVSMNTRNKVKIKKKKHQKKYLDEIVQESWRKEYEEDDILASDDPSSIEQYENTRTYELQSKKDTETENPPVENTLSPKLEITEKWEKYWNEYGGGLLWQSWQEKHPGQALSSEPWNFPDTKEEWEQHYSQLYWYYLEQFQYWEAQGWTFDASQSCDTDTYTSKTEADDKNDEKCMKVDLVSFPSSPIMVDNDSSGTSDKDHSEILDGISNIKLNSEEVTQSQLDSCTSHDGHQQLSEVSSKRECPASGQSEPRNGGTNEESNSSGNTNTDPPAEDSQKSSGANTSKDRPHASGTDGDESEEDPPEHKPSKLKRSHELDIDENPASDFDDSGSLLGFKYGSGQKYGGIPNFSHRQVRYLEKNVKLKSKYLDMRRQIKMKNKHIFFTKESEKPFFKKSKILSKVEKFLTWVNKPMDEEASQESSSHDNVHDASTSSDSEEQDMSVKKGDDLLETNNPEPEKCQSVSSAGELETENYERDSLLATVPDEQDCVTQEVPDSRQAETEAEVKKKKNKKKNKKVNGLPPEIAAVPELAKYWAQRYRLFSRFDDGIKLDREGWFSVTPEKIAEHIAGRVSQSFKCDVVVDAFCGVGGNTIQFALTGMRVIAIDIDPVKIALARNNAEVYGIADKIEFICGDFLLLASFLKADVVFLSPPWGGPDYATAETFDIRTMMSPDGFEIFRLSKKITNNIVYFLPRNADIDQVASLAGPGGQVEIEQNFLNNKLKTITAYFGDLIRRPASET
UniProt Q92609: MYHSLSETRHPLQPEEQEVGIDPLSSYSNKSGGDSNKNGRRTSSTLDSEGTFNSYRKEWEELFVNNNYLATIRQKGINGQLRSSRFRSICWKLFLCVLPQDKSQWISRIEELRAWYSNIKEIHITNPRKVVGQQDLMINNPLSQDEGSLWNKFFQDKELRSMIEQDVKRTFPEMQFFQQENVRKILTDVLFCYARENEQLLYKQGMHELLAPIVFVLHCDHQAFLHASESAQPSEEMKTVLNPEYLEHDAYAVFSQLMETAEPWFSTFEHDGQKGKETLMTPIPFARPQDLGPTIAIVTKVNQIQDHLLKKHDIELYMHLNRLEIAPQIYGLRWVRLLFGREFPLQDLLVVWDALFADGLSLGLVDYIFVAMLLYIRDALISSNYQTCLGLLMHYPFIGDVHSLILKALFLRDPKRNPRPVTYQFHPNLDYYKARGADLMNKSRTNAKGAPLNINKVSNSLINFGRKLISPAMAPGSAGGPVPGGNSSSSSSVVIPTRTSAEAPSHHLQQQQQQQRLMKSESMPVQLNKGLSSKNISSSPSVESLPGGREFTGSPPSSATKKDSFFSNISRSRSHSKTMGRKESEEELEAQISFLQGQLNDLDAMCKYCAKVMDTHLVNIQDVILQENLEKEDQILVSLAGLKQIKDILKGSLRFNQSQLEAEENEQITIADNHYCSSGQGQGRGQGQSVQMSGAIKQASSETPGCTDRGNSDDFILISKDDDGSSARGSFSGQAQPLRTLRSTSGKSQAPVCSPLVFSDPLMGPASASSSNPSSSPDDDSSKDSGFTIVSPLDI
UniProt P20226, whole entry, looked up: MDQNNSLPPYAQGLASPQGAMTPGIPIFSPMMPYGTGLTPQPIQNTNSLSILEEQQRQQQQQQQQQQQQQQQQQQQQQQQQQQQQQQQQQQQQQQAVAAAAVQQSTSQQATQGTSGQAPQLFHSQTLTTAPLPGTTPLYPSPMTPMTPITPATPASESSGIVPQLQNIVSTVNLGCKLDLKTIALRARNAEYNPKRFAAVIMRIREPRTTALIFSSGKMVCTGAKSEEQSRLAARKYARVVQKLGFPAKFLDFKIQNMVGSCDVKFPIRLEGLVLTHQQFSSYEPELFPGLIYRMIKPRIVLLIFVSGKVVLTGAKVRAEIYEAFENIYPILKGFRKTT
UniProt Q969Z0: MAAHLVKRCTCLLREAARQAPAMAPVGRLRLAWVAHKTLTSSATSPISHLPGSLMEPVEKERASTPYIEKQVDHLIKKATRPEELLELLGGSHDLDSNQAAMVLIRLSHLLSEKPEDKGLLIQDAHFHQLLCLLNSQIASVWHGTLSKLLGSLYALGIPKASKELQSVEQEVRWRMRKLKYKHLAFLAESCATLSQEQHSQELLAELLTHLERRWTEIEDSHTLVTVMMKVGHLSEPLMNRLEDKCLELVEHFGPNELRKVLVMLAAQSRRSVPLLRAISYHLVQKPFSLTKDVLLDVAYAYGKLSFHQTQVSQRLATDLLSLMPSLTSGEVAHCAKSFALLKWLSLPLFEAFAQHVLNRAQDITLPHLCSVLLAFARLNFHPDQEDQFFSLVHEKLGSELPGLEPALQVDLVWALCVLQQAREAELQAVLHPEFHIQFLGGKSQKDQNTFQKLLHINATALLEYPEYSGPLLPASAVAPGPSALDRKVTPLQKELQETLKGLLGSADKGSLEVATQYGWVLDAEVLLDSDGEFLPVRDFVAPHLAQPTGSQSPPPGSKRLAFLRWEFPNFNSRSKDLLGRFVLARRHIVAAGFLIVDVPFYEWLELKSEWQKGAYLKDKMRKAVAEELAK
UniProt Q96CG3: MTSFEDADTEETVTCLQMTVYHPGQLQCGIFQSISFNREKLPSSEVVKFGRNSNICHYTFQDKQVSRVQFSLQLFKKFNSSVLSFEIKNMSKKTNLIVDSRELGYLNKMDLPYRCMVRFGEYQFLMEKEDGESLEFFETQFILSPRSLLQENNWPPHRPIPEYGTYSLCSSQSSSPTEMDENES
UniProt Q9BTW9: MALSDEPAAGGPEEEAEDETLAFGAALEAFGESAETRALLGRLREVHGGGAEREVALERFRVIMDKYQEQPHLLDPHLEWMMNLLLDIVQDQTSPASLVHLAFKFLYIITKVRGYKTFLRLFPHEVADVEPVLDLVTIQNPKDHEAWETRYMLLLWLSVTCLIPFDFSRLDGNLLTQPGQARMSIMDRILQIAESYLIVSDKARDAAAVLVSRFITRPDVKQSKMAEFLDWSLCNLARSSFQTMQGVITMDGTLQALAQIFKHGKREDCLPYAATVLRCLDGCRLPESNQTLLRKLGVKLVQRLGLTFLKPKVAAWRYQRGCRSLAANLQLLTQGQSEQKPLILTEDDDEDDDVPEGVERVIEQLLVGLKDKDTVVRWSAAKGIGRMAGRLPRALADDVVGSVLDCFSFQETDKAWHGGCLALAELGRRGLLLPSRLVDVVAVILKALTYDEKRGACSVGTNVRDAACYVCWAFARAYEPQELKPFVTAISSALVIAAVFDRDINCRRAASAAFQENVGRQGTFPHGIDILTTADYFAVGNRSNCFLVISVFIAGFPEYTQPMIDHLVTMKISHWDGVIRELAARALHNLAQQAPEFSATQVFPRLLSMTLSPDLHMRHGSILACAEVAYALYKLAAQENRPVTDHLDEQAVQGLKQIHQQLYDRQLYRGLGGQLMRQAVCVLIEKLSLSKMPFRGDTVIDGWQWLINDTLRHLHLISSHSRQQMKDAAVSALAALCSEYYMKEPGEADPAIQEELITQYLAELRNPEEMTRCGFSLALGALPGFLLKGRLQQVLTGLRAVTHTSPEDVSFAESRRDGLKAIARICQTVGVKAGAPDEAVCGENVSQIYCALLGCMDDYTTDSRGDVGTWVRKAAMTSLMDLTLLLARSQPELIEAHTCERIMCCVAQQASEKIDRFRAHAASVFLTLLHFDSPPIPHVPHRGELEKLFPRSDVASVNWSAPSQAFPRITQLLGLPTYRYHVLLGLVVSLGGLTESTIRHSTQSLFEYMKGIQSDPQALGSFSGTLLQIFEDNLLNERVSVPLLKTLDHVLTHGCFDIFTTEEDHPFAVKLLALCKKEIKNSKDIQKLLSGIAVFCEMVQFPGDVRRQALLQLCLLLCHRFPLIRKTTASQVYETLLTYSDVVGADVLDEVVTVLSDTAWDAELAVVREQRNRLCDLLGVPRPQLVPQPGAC
UniProt Q9UHD2: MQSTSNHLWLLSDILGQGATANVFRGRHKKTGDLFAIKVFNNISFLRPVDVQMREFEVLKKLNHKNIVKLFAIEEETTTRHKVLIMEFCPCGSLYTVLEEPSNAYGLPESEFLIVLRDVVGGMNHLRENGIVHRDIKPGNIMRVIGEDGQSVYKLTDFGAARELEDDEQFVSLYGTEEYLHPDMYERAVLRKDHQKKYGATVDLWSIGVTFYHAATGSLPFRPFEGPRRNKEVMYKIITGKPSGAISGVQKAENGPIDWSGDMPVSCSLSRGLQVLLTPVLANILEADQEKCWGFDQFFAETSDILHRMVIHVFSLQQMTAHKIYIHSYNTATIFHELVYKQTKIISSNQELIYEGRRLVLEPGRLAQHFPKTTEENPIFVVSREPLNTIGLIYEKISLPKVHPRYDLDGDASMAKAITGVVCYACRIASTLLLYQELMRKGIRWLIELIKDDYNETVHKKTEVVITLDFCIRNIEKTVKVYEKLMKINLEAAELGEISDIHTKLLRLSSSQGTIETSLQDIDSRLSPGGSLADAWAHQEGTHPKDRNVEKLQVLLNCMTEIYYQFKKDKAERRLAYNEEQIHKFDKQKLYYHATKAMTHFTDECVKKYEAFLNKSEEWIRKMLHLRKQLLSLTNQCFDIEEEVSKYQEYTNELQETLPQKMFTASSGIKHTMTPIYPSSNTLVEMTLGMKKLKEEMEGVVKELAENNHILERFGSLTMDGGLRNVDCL
UniProt Q9BSF4: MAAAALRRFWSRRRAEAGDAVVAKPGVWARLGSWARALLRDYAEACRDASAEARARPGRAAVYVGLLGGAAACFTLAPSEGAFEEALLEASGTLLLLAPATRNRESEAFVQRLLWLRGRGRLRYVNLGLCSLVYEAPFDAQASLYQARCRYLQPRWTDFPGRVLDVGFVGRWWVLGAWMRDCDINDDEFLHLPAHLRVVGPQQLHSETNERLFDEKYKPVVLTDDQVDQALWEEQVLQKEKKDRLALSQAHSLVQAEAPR
UniProt Q6NUS6: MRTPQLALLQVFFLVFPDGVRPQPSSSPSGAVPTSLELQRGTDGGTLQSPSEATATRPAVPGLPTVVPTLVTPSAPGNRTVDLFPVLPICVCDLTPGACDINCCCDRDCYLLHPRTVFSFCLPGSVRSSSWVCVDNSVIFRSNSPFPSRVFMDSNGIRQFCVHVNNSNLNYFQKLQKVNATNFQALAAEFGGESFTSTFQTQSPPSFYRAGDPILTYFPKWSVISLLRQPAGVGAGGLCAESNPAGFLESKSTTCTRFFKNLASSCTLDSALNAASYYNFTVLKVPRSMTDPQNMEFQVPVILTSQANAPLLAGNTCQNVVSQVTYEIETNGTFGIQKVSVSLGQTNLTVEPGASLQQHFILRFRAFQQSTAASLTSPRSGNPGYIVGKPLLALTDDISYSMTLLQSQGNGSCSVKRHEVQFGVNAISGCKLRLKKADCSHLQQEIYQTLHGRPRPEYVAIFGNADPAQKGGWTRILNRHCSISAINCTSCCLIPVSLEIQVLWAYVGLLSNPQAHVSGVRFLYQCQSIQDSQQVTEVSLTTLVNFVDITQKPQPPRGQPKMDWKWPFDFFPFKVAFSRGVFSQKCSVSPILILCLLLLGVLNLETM
UniProt Q9H5L6: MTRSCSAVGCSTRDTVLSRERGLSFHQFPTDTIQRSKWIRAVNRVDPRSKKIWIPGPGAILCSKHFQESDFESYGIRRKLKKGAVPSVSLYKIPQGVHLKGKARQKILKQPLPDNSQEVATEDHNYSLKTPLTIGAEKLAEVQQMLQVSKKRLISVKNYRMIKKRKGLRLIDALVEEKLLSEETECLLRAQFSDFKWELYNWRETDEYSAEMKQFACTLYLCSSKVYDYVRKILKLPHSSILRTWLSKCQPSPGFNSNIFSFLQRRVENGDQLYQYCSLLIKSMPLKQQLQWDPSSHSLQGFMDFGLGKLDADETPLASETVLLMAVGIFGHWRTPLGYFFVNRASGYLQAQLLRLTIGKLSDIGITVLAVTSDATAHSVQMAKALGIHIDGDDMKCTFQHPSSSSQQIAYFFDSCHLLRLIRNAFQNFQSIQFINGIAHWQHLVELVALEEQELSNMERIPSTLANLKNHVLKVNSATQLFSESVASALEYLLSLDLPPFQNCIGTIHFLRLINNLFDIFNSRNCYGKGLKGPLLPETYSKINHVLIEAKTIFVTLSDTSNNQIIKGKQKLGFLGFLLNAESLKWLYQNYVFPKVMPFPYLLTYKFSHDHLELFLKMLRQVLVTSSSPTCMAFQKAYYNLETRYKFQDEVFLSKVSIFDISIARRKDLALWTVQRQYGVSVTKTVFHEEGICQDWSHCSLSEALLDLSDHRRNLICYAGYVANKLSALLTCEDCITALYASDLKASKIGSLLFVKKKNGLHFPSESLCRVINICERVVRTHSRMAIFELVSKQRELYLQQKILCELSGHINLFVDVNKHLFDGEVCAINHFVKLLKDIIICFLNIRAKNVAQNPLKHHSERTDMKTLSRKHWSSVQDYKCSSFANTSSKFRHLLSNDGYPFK

Compound: COC1=CC=C(C=C1)CN2C=CC3=C2C=C(C=C3)C(=O)NO
Test: log2 fold change, soluble protein after heating vs DMSO (PISA); higher = thermal stabilisation; K562 cells, 10 uM, 30 min; active = over 0.2 and 3.5 SD of the protein, either way, in both replicates (recomputed)
How it was run: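 Soluble protein was defined as the supernatant after 21,000xg for 90 min. It came from K562 cells at 2×10^6 cells/mL given 10 μM compound for 30 min, heated in aliquots for 3 min across 48°C-58°C, pooled, and extracted in PBS with 0.5% NP-40 at 4°C, and was quantified by TMTpro 16plex LC-MS/MS with equalised channel sums. Thermal stability against control samples, from duplicates, is reported as log2 fold change.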

log2 fold change, inactive:
TERF2IP (UniProt Q9NYB0) -0.034
TBC1D23 (UniProt Q9NUY8) 0.07
TFAM (UniProt Q00059) -0.035
TGS1 (UniProt Q96RS0) -0.074
TENT5C (UniProt Q5VWP2) -0.133
TIPRL (UniProt O75663) 0.011
TFCP2 (UniProt Q12800) -0.062
TBC1D5 isoform 2 (UniProt Q92609) 0.048
TDRD7 (UniProt Q8NHU6) 0.035
TBC1D20 isoform 3 (UniProt Q96BZ9) 0.026
TGFBI (UniProt Q15582) 0.063
TJP1 (UniProt Q07157) 0.02
TFPI (UniProt P10646) 0.062
TBP (UniProt P20226) -0.014
TFDP1 (UniProt Q14186) -0.031
TBRG4 (UniProt Q969Z0) 0.062
TJP2 isoform 7 (UniProt Q9UDY2) 0.019
TIFA (UniProt Q96CG3) -0.068
THYN1 (UniProt Q9P016) -0.01
TBC1D2B (UniProt Q9UPU7) -0.079
TBCD (UniProt Q9BTW9) -0.017
TBK1 (UniProt Q9UHD2) -0.06
TBC1D24 (UniProt Q9ULP9) 0.032
TK2 isoform 6 (UniProt O00142) -0.069
TEX2 isoform 2 (UniProt Q8IWB9) -0.096
TFE3 (UniProt P19532) 0.221
TCEAL1 isoform 2 (UniProt Q15170) 0.022
THRAP3 (UniProt Q9Y2W1) 0.087
THADA (UniProt Q6YHU6) 0.019
TCOF1 isoform 6 (UniProt Q13428) -0.318
TIMM44 (UniProt O43615) 0
TCIRG1 (UniProt Q13488) -0.022
TIMM29 (UniProt Q9BSF4) -0.141
TK1 (UniProt P04183) -0.012
TIMM21 (UniProt Q9BVV7) -0.038
TEX30 (UniProt Q5JUR7) -0.063
TKT, A0A0B4J1R6 -0.241
TCF25 (UniProt Q9BQ70) 0.038
TCTN3 (UniProt Q6NUS6) -0.185
THAP9 (UniProt Q9H5L6) 0.434

Random excerpt: 3 entries already listed
log2 fold change, inactive:
TBRG4 (UniProt Q969Z0) 0.062
TBK1 (UniProt Q9UHD2) -0.06
TK2 isoform 6 (UniProt O00142) -0.069
